{"source": "PubChem BioAssay AID504467", "about": "(National Center for Advancing Translational Sciences (NCATS), 2011)", "note": "Among all 330,000 compounds or so, about 7,700 (2.3%) were called active. Inconclusive means that the source gave no clear call. Such entries were picked first, then a sample of the others. The call rests on the fitted dose curve; in most records, active means well fitted inhibition curve with a large enough effect; inconclusive means small, poorly fitted or top-dose-only effect, or effect the other way; inactive means flat fitted curve, though single readings scatter. Potencies beside an inconclusive call are fits to weak or partial responses and may not hold up. Potency means the concentration at half of the fitted maximal effect."}
{"experiment": "qHTS screen for small molecules that inhibit ELG1-dependent DNA repair in human embryonic kidney (HEK293T) cells expressing luciferase-tagged ELG1; further: nearly all actives have a fitted effect of over 55% in size", "details": "HEK293T ELG1-luciferase reporter, luminescence, 16 h, DNA damage induced by 5-fluorouridine; series mostly up to 46.1 µM", "procedure,_shortened": "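In this reporter screen, reduction of luminescence relative to DMSO vehicle indicated activity. Compounds and 5-fluorouridine were added together to 2,000 cells per well, incubated for 16 hr at 37 °C, then developed with ONE-Glo.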"}
{"molecule": "COc1cccc(OC)c1OCCCN1CCC(Cc2ccccc2)CC1", "Potency": "inactive"}
{"molecule": "Cc1ccc(NC2c3ncccc3C(=O)N2Cc2ccco2)c(C)c1", "note": "(configuration not stated)", "Potency": "inactive"}
{"molecule": "N#CCCn1nc(-c2ccc([N+](=O)[O-])cc2)cc1Nc1ccccc1NC(=O)C(F)(F)F", "Potency": "active: 18.4 µM"}
{"molecule": "O=C1CC[C@H](OCc2ccccc2)CCN1[C@H](CSc1ccccc1)Cc1ccccc1", "Potency": "inconclusive: 29.1 µM [activator, single point]"}
{"molecule": "CCOC(=O)c1c(NC(=S)Nc2ccc(F)cc2)sc2c1CCC2", "Potency": "inactive"}
{"molecule": "O=C(CN1C(=O)NC2(CCCCC2)C1=O)Nc1ccc2c(c1)OCCCO2", "Potency": "inconclusive: 14.1 µM [activator, partial curve]"}
{"molecule": "CCOC(=S)NC(=O)c1sc2ccccc2c1Cl", "Potency": "inactive"}
{"molecule": "CCCCn1c(SCC(=O)Nc2cccc(OC)c2)nc2ccc(N3CCOCC3)cc2c1=O", "Potency": "inconclusive: 14.1 µM [inhibitor, partial curve, poor fit]"}
{"molecule": "COc1cccc(CNC(=O)C2CCN(S(=O)(=O)c3ccc(Br)s3)CC2)c1", "Potency": "inconclusive: 25.9 µM [inhibitor, single point]"}
{"molecule": "CN1CCN(c2ccc(NC(=O)C(C)(c3ccccc3)c3ccccc3)cc2)CC1", "Potency": "inactive"}
{"molecule": "O=C(CSc1nc(-c2ccc(F)cc2)cs1)N1CCN(C(=O)c2ccco2)CC1", "Potency": "inconclusive: 29.1 µM [inhibitor, single point]"}
{"molecule": "CCOC(=O)C1CCN(C(=O)Cn2nc(C)n3cccc3c2=O)CC1", "Potency": "inconclusive: 29.1 µM [activator, partial curve, poor fit]"}
{"molecule": "COc1cccc(C(=O)NCc2ccco2)c1OC", "Potency": "inactive"}
{"molecule": "COc1ccc(OCC(=O)N2c3ccccc3CCc3ccccc32)cc1", "Potency": "inconclusive: 20.6 µM [inhibitor, partial curve, poor fit]"}
{"molecule": "Cc1c(Cl)cccc1NC(=O)CN(C1CCCCC1)S(C)(=O)=O", "Potency": "inactive"}
{"molecule": "Cc1cc(C)nc(SC2=CS(=O)(=O)c3ccccc32)n1", "Potency": "inconclusive: 32.6 µM [inhibitor, single point]"}
{"molecule": "CCOC(=O)c1c(C)[nH]c(C(=O)COC(=O)C23CC4CC(CC(Cl)(C4)C2)C3)c1C", "Potency": "active: 11.6 µM"}
{"molecule": "O=C(CSCc1cccc(Br)c1)N1CCOCC1", "Potency": "inconclusive: 13 µM [activator, partial curve]"}
{"molecule": "CC(C)c1ccc(-c2noc(C3CCCN(S(C)(=O)=O)C3)n2)cc1", "note": "(configuration not stated)", "Potency": "inconclusive: 16.4 µM [activator, single point]"}
{"molecule": "Cc1ccc(NC(=O)CS(=O)CC(=O)NC2CCN(Cc3ccccc3)CC2)c(C)c1", "note": "(configuration not stated)", "Potency": "inactive"}
{"molecule": "CCC(C)c1ccc(O)c(NC(=S)NC(=O)c2cccnc2)c1", "note": "(configuration not stated)", "Potency": "inactive"}
{"molecule": "CCN(CC)C(=S)Oc1ccc(Cl)cc1Cl", "Potency": "inactive"}
{"molecule": "Cc1cc(Br)cc(Cl)c1OCC(=O)N1CCN(C(=O)c2ccco2)CC1", "Potency": "inactive"}
{"molecule": "CCOc1ccc(N(CC(=O)N/N=C(\\C)c2cccc(NC(C)=O)c2)S(=O)(=O)c2ccccc2)cc1", "Potency": "inconclusive: 18.3 µM [inhibitor, partial curve, poor fit]"}
{"molecule": "COc1ccc(CC(C)N2CCN(c3cccc(C(F)(F)F)c3)CC2)cc1OC", "note": "(configuration not stated)", "Potency": "inconclusive: 0.92 µM [inhibitor, full curve, poor fit]"}
{"molecule": "O=S(=O)(NCCOc1ccccc1F)c1cccc(Br)c1", "Potency": "inactive"}
{"molecule": "Cc1ccc(C)c(N2CCN(C(=O)c3ccc4nsnc4c3)CC2)c1", "Potency": "inconclusive: 7.3 µM [inhibitor, partial curve, poor fit]"}
{"molecule": "CC(=O)N/N=C(\\C)CC(=O)Nc1cccc(C(F)(F)F)c1", "Potency": "inconclusive: 5.17 µM [inhibitor, single point]"}
{"molecule": "Cc1ccc(C)c(NS(=O)(=O)c2cc(C(=O)Nc3ccccc3-c3ccccc3)ccc2C)c1", "Potency": "inconclusive: 16.4 µM [inhibitor, single point]"}
{"molecule": "CCOc1ccc(NC(=O)C2CCC(CNc3c(N4CCC(C)CC4)c(=O)c3=O)CC2)cc1", "note": "(configuration not stated)", "Potency": "inconclusive: 16.4 µM [inhibitor, partial curve]"}
{"molecule": "COc1ccc(S(=O)(=O)Nc2ccccc2-c2nc3ccccc3[nH]c2=O)cc1", "Potency": "inconclusive: 13 µM [inhibitor, partial curve]"}
{"molecule": "Cc1cc(/C=C2/C(=N)N3C(=NC2=O)SN=C3S(C)(=O)=O)c(C)n1-c1ccccc1F", "Potency": "inconclusive: 2.06 µM [activator, full curve]"}
{"molecule": "Cc1cc(C)cc(N=C2SC(CC(=O)Nc3ccccc3)C(=O)N2CCN2CCOCC2)c1", "note": "(configuration not stated)", "Potency": "inconclusive: 20.6 µM [inhibitor, single point]"}
{"molecule": "Cc1csc(NC(=O)CSc2nc3ccccc3s2)n1", "Potency": "inactive"}
{"molecule": "CCOC(=O)c1sc2ncn(CC(=O)N(CC)CC)c(=O)c2c1C", "Potency": "inactive"}
{"molecule": "COc1cc(/C=N/NC(=O)Cc2c[nH]c3ccccc23)cc(OC)c1OC", "Potency": "inconclusive: 13 µM [inhibitor, single point]"}
{"molecule": "Cc1ccc(OC(=O)c2cccc(S(=O)(=O)N3CCCC3)c2)c(-n2nc3ccccc3n2)c1", "Potency": "inconclusive: 6.51 µM [activator, partial curve]"}
{"molecule": "N#CCCN1CCC(NC(=O)OCc2ccccc2)CCC1=O", "note": "(configuration not stated)", "Potency": "inactive"}
{"molecule": "Cc1cc(NC(=O)CSc2nc(C(C)C)nc3ccccc23)no1", "Potency": "active: 14.6 µM"}
{"molecule": "Cc1ccc([N+](=O)[O-])cc1S(=O)(=O)n1ccnc1C", "Potency": "inactive"}
{"molecule": "Cc1ccc(/C=N/NC(=O)Nc2ccccc2)o1", "Potency": "inconclusive: 9.2 µM [activator, partial curve]"}
{"molecule": "CCOc1ccccc1C1CC(=O)Nc2cc3c(cc21)OCCO3", "note": "(configuration not stated)", "Potency": "inconclusive: 1.16 µM [inhibitor, single point]"}
{"molecule": "CSc1nn(-c2ccc(C(=O)OC(C(=O)NC(N)=O)C(C)C)cc2)c(=S)s1", "note": "(configuration not stated)", "Potency": "inconclusive: 29.1 µM [inhibitor, partial curve, poor fit]"}
{"molecule": "Cc1ccc(Oc2ccc(/C=N/O)cn2)cc1", "Potency": "inactive"}
{"molecule": "COc1cc(C(=O)NCCN2C(=O)S/C(=C\\c3ccc(F)cc3)C2=O)ccc1OCC(=O)N1CCOCC1", "Potency": "inactive"}
{"molecule": "COc1cc(NC(=O)Nc2ccccc2OC)c(OC)cc1NC(=O)CN1CCCCC1", "Potency": "inconclusive: 13 µM [inhibitor, partial curve, poor fit]"}
{"molecule": "Cc1c([C@H]2[C@@H](CC#N)C2(C)C)c2ccccc2n1C", "Potency": "inactive"}
{"molecule": "CCCCNC(=O)/C(C#N)=C/c1cccnc1", "Potency": "inactive"}
{"molecule": "CC(C)(C)c1csc(CS(=O)(=O)c2ccccn2)n1", "Potency": "inconclusive: 18.3 µM [activator, single point]"}
{"molecule": "C=CCn1c(SCC(=O)Nc2ccccc2OC)nnc1-c1ccccn1", "Potency": "inconclusive: 4.11 µM [inhibitor, partial curve, poor fit]"}
{"molecule": "CCN(c1ccccc1)S(=O)(=O)c1cc(NC(=O)C2CC2)ccc1Cl", "Potency": "inactive"}
{"molecule": "Cc1ccc(NC(=O)c2ccc3ccccc3n2)nc1", "Potency": "inconclusive: 2.31 µM [activator, full curve]"}
{"molecule": "CCN(CC)C(=O)CSc1nc2cc3c(cc2c(=O)n1Cc1ccco1)OCO3", "Potency": "inconclusive: 29.1 µM [inhibitor, single point]"}
{"molecule": "CC(=O)c1c(C)oc2ccc(NS(=O)(=O)c3ccc(C)cc3)cc12", "Potency": "inconclusive: 2.91 µM [inhibitor, partial curve]"}
{"molecule": "CN(C)S(=O)(=O)c1ccc(C(=O)OCC(=O)N2CC3(C)CC2CC(C)(C)C3)cc1", "note": "(configuration not stated)", "Potency": "inactive"}
{"molecule": "CCN1C(=O)[C@H]2[C@@H](c3ccc(C)cc3)N3C(=O)N(c4cccc(F)c4)C(=O)[C@@]3(C)[C@H]2C1=O", "Potency": "inconclusive: 0.73 µM [activator, partial curve, poor fit]"}
{"molecule": "O=C(NCCNC(=O)c1ccc(Br)o1)c1ccc(Br)o1", "Potency": "inconclusive: 1.03 µM [activator, single point]"}
{"molecule": "O=C(NCCCN1CCCC1=O)C1CCN(S(=O)(=O)c2ccc(Cl)cc2)CC1", "Potency": "inconclusive: 12.6 µM [activator, partial curve, poor fit]"}
{"molecule": "Cc1ccc(S(=O)(=O)N2CCN(C(=O)c3cccc(-n4cccc4)c3)CC2)cc1", "Potency": "inactive"}
{"molecule": "Cc1ccccc1N1C(=O)c2cccc3c(N(C)CCO)ccc(c23)C1=O", "Potency": "inconclusive: 18.4 µM [inhibitor, single point]"}
{"molecule": "CCc1ccc(NC(=O)Nc2ccncc2)cc1", "Potency": "inconclusive: 23.1 µM [activator, single point]"}
{"molecule": "O=C(CCn1c(=O)sc2ccccc21)NCCCn1ccnc1", "Potency": "inconclusive: 29.1 µM [activator, single point]"}
{"molecule": "CCN1CCN(c2nc3c(C)cccn3c(=O)c2C=C(C#N)C#N)CC1", "Potency": "inconclusive: 16.4 µM [activator, single point]"}
{"molecule": "OC(CN1CCC(Cc2ccccc2)CC1)c1ccccc1", "note": "(configuration not stated)", "Potency": "inactive"}
{"molecule": "COc1ccc(-c2nnc(Sc3nc4ccccc4o3)c3ccccc23)cc1", "Potency": "inactive"}
{"molecule": "O=C1C=C(c2ccc(Cl)cc2)C(=O)N1Nc1ccccc1", "Potency": "inconclusive: 23.1 µM [activator, single point]"}
{"molecule": "CNC(=O)c1[nH]cnc1C(=O)NCC(=O)OCc1ccccc1", "Potency": "inactive"}
{"molecule": "Cc1ccc(-n2nc3c(c2NC(=O)c2ccc(Br)o2)CSC3)c(C)c1", "Potency": "inactive"}
{"molecule": "Cc1ccc(N2CC(C(=O)O)CC2=O)cc1", "note": "(configuration not stated)", "Potency": "inconclusive: 23.1 µM [activator, partial curve, poor fit]"}
{"molecule": "Nc1cc(N)nc(SCC(=O)N2CCc3ccccc32)n1", "Potency": "inconclusive: 18.4 µM [activator, partial curve]"}
{"molecule": "Cc1ccccc1-c1nc2ccccc2[nH]1", "Potency": "inconclusive: 16.4 µM [activator, partial curve]"}
{"molecule": "O=C1CCCC(O)=C1N=Nc1c(Cl)cc(C(F)(F)F)cc1Cl", "Potency": "inconclusive: 14.6 µM [activator, single point]"}
